Test: MTX loading efficiency of peptide-MTX conjugation (UV-Vis)
Format: physicochemical
Settings: loaded drug / added drug x 100, supernatant read at 365 nm, MTX 3 equivalent to resin, 48 h

Substance: NGRWRWRWR [linear cell-penetrating peptide …]
- MTX loading to CPPs (drug loading efficiency): %73

Substance: RRRRRR [R6, linear polyarginine peptide RRRRRR]
- MTX loading to CPPs (drug loading efficiency): %42

Substance: WKWKWKWK [[WK]4, linear cell-penetrating peptide WKWKWKWK]
- MTX loading to CPPs (drug loading efficiency): %87

Substance: WRWNGRWRW [WRNGRWR, linear cell-penetrating peptide …]
- MTX loading to CPPs (drug loading efficiency): %95

Substance: WRWRWRNGR [linear cell-penetrating peptide …]
- MTX loading to CPPs (drug loading efficiency): %72

Substance: WRWRWRWR [[WR]4, linear cell-penetrating peptide WRWRWRWR]
- MTX loading to CPPs (drug loading efficiency): %88

Substance: WWWWKKKK [W4K4, linear cell-penetrating peptide WWWWKKKK]
- MTX loading to CPPs (drug loading efficiency): %93

Substance: WWWWRRRR [W4R4, linear cell-penetrating peptide WWWWRRRR]
- MTX loading to CPPs (drug loading efficiency): %97

From publication PMC8653662, “Cytotoxicity and Immunogenicity Evaluation of Synthetic Cell-penetrating Peptides for Methotrexate Delivery” (Iranian Journal of Pharmaceutical Research : IJPR, 2021)
